Earlier results, collected in US20150164791A1, “CORNEAL SHAPING” (priority 2005, published 2015).
At least one structure is not confirmed: it was looked up by name or label, or the drawing left a doubt.

System: MMP's 1, 2, 8 and 9
Settings: topical; rat cornea; animals with epithelial defects and with intact epithelium; cited from earlier work

Row | Structure (SMILES) | MMP levels in corneal epithelium and anterior stroma
1 | C[C@H]1COc2c(N3CCN(C)CC3)c(F)cc3c(=O)c(C(=O)O)cn1c23 [levofloxacin] | increased
2 | CC1COc2c(N3CCN(C)CC3)c(F)cc3c(=O)c(C(=O)O)cn1c23 (centres unmarked) [ofloxacin] | increased
